Patent US20150330991A1, “METHOD FOR IMPROVING TARGET AFFINITY OF PEPTIDE” (GWANGJU INSTITUTE OF SCIENCE AND TECHNOLOGY, priority 2012, published 2015)
No constants are given. Whether binding was seen depends on the method and setting.

Experiments:
Experiment in all cases: phage ELISA, wells coated with 5 µg/ml protein, anti-M13-HRP, absorbance at 450 nm
HSA (human) = target: HSA (human)
VEGF = target: VEGF
VEGFR2 = target: VEGFR2
TNF = target: TNF
Ovalbumin = target: Ovalbumin

Measured: binding

GNQWFIGGGSWTWENGKWTWKGRIPKNR [VEGFR1_opti1]
not listed: Ovalbumin
no binding: all other assays above

GNQWFIGGGSWTWENGKWTWKGKLQNPM [VEGFR1_opti2]
not listed: Ovalbumin
no binding: all other assays above

GNQWFIGGGSWTWENGKWTWKGQQAIQP [VEGFR1_opti3]
not listed: Ovalbumin
no binding: all other assays above

WSHPQFEKGGGSWTWENGKWTWKGAHPQVR [Strep_opti1]
no binding: VEGF | Ovalbumin

WSHPQFEKGGGSWTWENGKWTWKGTLIHPM [Strep_opti2]
no binding: VEGF | Ovalbumin
